Literature values as cited in US12246082B2, “Efficient sunscreen compositions with diethylamino hydroxybenzoyl hexyl benzoate and butyl methoxydibenzoylmethane free of octocrylene” (BASF SE, priority 2019, dated 2025).
At least one compound was matched to its structure with a doubt left.

Conditions: stated in the description; cited from earlier work

For CCCCC(CC)COC(=O)C(C#N)=C(c1ccccc1)c1ccccc1 (stereo not shown) [octocrylene, Ethylhexyl-2-cyano-3,3-diphenyl-acrylate], which absorption maximum is on record?
The absorption maximum was 302 nm.
